Source: patent US9687561 (dated 2017)
One purity is given for all peptides; the source may state it once.

Test: general procedure: Fmoc solid-phase peptide synthesis; rink amide methylbenzhydrylamine resin; HCTU
Conditions: conjugation step; for final HPLC purity: UPLC

Substance | conjugation yield [%] | final HPLC purity [%]
propagyl-PAMAM(1)-(SMaI-An2)4 | 21 | 95
Propagyl-PAMAM(1)-(SSCysAn2)4 | 65 | 95
azido-PAMAM(1)-(SSCysAn2)4 | 43 | 95
azido-PAMAM(1)-(SMaI-An2)4 | 20 | 95
azido-PAMAM(0)-(SSCysAn2)2 | 43 | 95
propagyl-PAMAM(2)-(SSCysAn2)8 | 30 | 95
